Reference: PMC1959517
These are yes or no findings as the source states them, for the method shown. Some binding calls cover weakened binding; strength is not graded here. For some assays here: Tags and fused reporters may be left off the sequences shown.

Protein sequences, listed by entry. Tags and fused reporters are not part of them. Lines headed by an entry give the natural chain unless they say otherwise; changes in a name come on top.
UniProt P0AFC3: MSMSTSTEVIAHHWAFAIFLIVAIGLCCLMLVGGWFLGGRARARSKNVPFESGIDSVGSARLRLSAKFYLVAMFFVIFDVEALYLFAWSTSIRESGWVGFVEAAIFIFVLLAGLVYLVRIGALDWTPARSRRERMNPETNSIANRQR

B1: His-tagged CyaY (overproduced from pCA24NcyaY), P27838 1-106 (protein)
chain: MNDSEFHRLADQLWLTIEERLDDWDGDSDIDCEINGGVLTITFENGSKIIINRQEPLHQVWLATKQGGYHFDLKGDEWICDRSGETFWDLLEQAATQQAGETVSFR
B2: CyaY, the Escherichia coli frataxin homologue (protein, UniProt P27838 1-106)
chain: B1 chain

Columns and labels:
[1] = target: T1, His-tagged CyaY (overproduced from pCA24NcyaY) (E. coli), P27838; assay: SDS-PAGE; His-tagged CyaY purified on His Spin-Trap (Ni-Sepharose), eluted with 1 M imidazole in 20 mM Na3PO4/HCl pH 7.4; bands of apparent 12 and 25 kDa on a Coomassie-stained SDS gel; both purified; details: remark: other sources report otherwise
T1 chain: B1 chain

[2] = target: NADH:ubiquinone oxidoreductase (respiratory complex I) of Escherichia coli (E. coli (endogenous in BW25113)) (UniProt P0AFC3); assay: co-purification (anion exchange and size-exclusion chromatography) read by SDS-PAGE; complex I isolated from DDM extract of cytoplasmic membranes of the parental strain BW25113 (Fractogel EMD, Source 15Q, Sephacryl S-300 HR; 50 mM MES/NaOH, 50 mM NaCl, 0.1% DDM, pH 6.0, 4°C); 100 μg of the preparation on a Coomassie-stained SDS gel, looked at for a 12 kDa band

Binder | binding [1] | binding [2]
B1 | binds | –
B2 | – | no binding
